Reference: publication PMC11821806
No constants are given. Whether binding was seen depends on the method and setting. In cells and extracts the contact can be indirect. Some results given as binding are weak or reduced against the parent protein; the word gives no strength. Where a sequence is shown, tags or fusion partners need not be part of it.

By UniProt entry, the sequences of proteins in these tests, tags left out. Where a name states a change or a piece, a line headed by the entry shows the natural chain unless it says otherwise.
UniProt P07333: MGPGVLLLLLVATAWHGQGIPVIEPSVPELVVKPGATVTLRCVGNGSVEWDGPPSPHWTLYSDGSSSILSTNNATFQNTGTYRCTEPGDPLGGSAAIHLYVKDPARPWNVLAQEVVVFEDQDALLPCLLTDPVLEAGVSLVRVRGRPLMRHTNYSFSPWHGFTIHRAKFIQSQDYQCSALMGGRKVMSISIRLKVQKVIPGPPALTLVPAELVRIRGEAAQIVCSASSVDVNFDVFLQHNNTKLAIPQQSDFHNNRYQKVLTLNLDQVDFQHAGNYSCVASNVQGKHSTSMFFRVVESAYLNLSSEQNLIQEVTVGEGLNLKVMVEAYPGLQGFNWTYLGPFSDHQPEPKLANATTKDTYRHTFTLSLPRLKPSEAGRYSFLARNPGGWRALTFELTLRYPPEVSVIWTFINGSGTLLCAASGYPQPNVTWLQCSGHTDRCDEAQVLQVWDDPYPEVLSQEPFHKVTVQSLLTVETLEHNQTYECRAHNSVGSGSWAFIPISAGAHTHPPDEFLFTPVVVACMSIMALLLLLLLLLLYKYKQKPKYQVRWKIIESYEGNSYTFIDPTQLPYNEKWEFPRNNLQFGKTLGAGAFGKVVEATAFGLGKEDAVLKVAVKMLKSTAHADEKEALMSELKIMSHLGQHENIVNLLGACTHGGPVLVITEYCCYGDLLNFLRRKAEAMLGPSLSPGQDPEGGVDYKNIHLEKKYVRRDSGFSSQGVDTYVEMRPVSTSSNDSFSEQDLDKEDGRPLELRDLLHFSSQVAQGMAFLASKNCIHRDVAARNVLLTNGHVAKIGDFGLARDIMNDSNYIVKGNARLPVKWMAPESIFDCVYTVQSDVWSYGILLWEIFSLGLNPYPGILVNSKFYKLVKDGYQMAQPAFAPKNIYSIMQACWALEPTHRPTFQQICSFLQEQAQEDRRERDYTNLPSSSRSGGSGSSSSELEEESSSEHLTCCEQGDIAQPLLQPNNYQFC

Biological target: T1, N-terminally Flag-tagged human TNF-α–induced protein 2 (TNFAIP2) (human) (UniProt Q03169)
T1 sequence: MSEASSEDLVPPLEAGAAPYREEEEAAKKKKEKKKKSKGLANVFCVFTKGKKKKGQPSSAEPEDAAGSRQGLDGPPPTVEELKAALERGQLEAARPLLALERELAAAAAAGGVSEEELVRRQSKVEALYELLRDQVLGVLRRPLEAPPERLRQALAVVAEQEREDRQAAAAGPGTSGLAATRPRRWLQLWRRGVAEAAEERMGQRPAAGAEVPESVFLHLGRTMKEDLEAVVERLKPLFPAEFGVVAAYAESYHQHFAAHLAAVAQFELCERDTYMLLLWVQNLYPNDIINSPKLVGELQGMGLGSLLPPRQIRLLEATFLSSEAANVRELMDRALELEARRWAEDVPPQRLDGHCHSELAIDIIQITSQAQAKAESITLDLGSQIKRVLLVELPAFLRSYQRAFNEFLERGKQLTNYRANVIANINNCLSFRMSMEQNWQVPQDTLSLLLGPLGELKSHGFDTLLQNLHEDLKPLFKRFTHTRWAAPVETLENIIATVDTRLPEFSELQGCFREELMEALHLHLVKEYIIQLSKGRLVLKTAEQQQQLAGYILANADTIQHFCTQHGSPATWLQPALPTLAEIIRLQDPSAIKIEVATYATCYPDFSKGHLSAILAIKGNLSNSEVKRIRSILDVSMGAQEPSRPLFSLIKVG
Experiment: co-IP; anti-Flag (M2) antibody and Protein A/G PLUS Agarose on Nonidet P-40 lysates of TNFAIP2-expressing 293 cells transfected with WT or mutant CSF1R plasmid, cultured 2 d without CSF-1; immunoprecipitates blotted with anti-CSF1R and anti-TNFAIP2

Row | Substance | binding
1 | CSF1R 1–537 mutant (C-terminally deleted) (from UniProt P07333 20-537) (domain or fragment) | no binding
2 | CSF1R 1–545 mutant (C-terminally deleted) (from UniProt P07333 20-545) (domain or fragment) | binds
3 | WT CSF1R (receptor of CSF-1) (from UniProt P07333 20-972) | binds
